These results are taken from EP1464649A2, “Sugar derivatives comprising oxiranes or alpha,beta-unsaturated gamma-lactones, process for their preparation and their utilisation as pesticides” (Instituto Politécnico de Santarém / Escola Superior Agraria, priority 2003, dated 2004).

Data set [1] relates to adult fruit fly (D. melanogaster). Kind of data set: Method A: topical treatment of adult fruit fly. It counts as in vivo, Drosophila melanogaster. Particulars: slope of log-probit regression line. The method, then: A culture of fruit flies (D. melanogaster) was used in the production of adult flies (approx 0.22 mg) of about seven days.
Serial dilutions of the compounds were prepared in acetone, and volumes of approximately 0.2 µL were applied to the ventral surface of each insect, using a calibrated PAX 100 microapplicator and a 1 mL syringe.
The fruit flies, in groups of 5, were anaesthetised using carbon dioxide. Prior to recovery the flies were placed in a containing vial and kept at 30±1°C, for observations of mortality at 1, 2, 3 and 24 hours after treatment.
For this purpose solutions of 6 different concentrations and a control were employed in groups of 12 and 20 insects. Control mortalities were normally zero but occasionally rose to 5-10%.
(§1) Dosages used in insect treatments were based upon the amount of compound applied to each insect. For the shrimps the final concentrations of the compounds in the immersion brine were used.
(§2) The 24 hour mortalities were used to calculate the LD50/LC50 using regression analysis of the probability percent mortality (probit) against log dose/concentration.^30 This was calculated using PoloPC software (LeOra Software, Berkeley, CA, 1994).

For data set [2], the system named is brine shrimp A. salina larvae. It counts as in vivo. Particulars: Method F, slope of log-probit regression line. The procedure: Freshly hatched brine shrimps were prepared by adding aquarium brine shrimp eggs to salt water (15 g sea salt per litre water). The following day hatchlings were separated from eggs and empty egg cases, using their phototropic movement and a Pasteur pipette.
Into each of a set of small glass vials was pipetted 195 µL of brine containing 5 shrimp larvae, using a micropipette. The solution of the test compound in 5 µL acetone was added, the vial closed and kept at 30±1°C for observation.
Dead and alive shrimps were counted, at 1 and 24 hours after treatment, using a microscope. Six concentrations and a control were used with 10 shrimps treated.
A blank test was performed for comparison of the results.
as §1, §2

In the case of `COC1OC(C2CC(C)([Se]c3ccccc3)C(=O)O2)C2OC12` [Compound 6, methyl (7R)-/(7S)-2,3-anhydro-6,7-dideoxy-7-methyl-7-phenylselenyl-β-L-gulo-octofuranurono-8,5-lactone], the Slope turned out to be 0.696±0.155 in data set [1] and 10.275±2.421 in data set [2].

Consider “Methyl 2,3;5,6-Dianhydro-β-L-gulofuranoside [Compound 9]”, for which the figures for the Slope in data set [1] and in data set [2] were 0.326±0.106 and 8.734±1.862, respectively.
